# Some of the results follow. The main result of the screen is listed elsewhere. These columns were measured beside it and carry no call. Compounds called inactive in the main read-out are mostly missing here. Potencies come from curve fits of mixed quality, noted in brackets.
# Test: qHTS Assay for Modulators of Lamin A Splicing
# Settings: HeLa LMNA splicing GFP/RFP minigene ratio, 48 h
# Method in brief: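 S3 HeLa cells stably expressing lamin A-EGFP splicing minigene plus DsRed2, 600 cells/well, 48 h compound exposure at 37C. Laser-scanning cytometry; analysed as GFP (500-530 nm)/RFP (575-640 nm) total intensity ratio; 0.5% DMSO vehicle.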
# [1] = measured here: GFP splicing reporter channel
# [2] = measured here: RFP viability control channel
Compound,AC50 [1],AC50 [2]
COc1cccc(C(=O)NCC(c2ccc3c(c2)OCO3)N2CCOCC2)c1 (centres undefined),"0.0224 µM [rising, full curve, poor fit]",
Cc1ccccc1OCCCCc1c(C)n[nH]c1C,,"5.62 µM [rising, full curve]"
O=C(OCc1cccc([N+](=O)[O-])c1)c1cc(=O)[nH]c2ccccc12,"0.00447 µM [rising, full curve, poor fit]","0.0141 µM [rising, full curve, poor fit]"
N#Cc1cc(Br)ccc1N=C1CCCN1c1ccccc1,"15.8 µM [rising, single point]","20 µM [rising, single point]"
CCCCCCC(=O)NNC(=O)c1c(O)c2ccccc2n(CC)c1=O,"35.5 µM [rising, single point]","31.6 µM [rising, single point]"
S=C(NCC1CCCO1)N1CCN(c2nc(-c3ccccc3)cs2)CC1 (centres undefined),"10 µM [falling, partial curve, poor fit]","15.8 µM [falling, partial curve, poor fit]"
C[N+](C)(CCCCCC[N+](C)(C)CCCN1C(=O)c2cccc3cccc(c23)C1=O)CCCN1C(=O)c2cccc3cccc(c23)C1=O,"0.00316 µM [falling, full curve, poor fit]",
CC(C)C1CC(CCN2CCCCC2)(c2ccccc2)CCO1 (centres undefined),,"0.0562 µM [falling, full curve]"
CN1CCN(C(=O)c2ccc3c(=O)n(Cc4ccc(Cl)cc4)c(=S)[nH]c3c2)CC1,"17.8 µM [rising, single point]","35.5 µM [rising, single point]"
O=C1c2ccccc2C(Nc2ccc3c(c2)OCO3)N1Cc1ccc2c(c1)OCO2 (centres undefined),"12.6 µM [rising, single point]","22.4 µM [rising, single point]"
COc1ccccc1-c1cc(C(=O)Nc2cc(C)nn2-c2ccccc2)no1,,"3.55 µM [rising, single point]"
Cn1nc(-c2ccc(Cl)cc2)c2cc(C(=O)NCc3ccco3)sc21,,"22.4 µM [rising, single point]"
O=C(Nc1cccc(C(F)(F)F)c1)c1cc(-c2ccc3c(c2)OCCO3)on1,"35.5 µM [falling, partial curve]","35.5 µM [falling, partial curve, poor fit]"
CCc1ccccc1NC(=O)c1ccc2nc(C(C)C)oc2c1,,"1.78 µM [falling, partial curve, poor fit]"
COc1cc(/C=C/c2cc(C(=O)O)c3ccccc3n2)cc(OC)c1O,"3.16 µM [rising, full curve]",
Cn1c(SCC(=O)NCC2CCCO2)nnc1-c1ccc(S(=O)(=O)N2CCCC2)cc1 (centres undefined),,"3.98 µM [falling, single point]"
COc1ccc(Nc2oc(-c3ccccc3Cl)nc2C#N)cc1,,"15.8 µM [rising, partial curve]"
CCn1c(Sc2nc(C)nc3scc(-c4cccs4)c23)n[nH]c1=O,,"17.8 µM [rising, partial curve]"
C/C(=N\Nc1ncc(Cl)cc1Cl)c1ccc(S(=O)(=O)NCc2ccco2)cc1,"35.5 µM [rising, single point]","35.5 µM [rising, single point]"

Compound,AC50 [1],AC50 [2]
CCNC(=S)N=Nc1c(O)[nH]c2ccc(C(C)C)cc12,,"31.6 µM [rising, single point]"
CCc1nnc(NC(=O)CCC(=O)N2CCN(C3CCCCC3)CC2)s1,,"2.82 µM [rising, full curve, poor fit]"
CCOC(=O)c1nn(-c2ccccc2)c(=O)cc1SC(C)C,"35.5 µM [rising, single point]",
Cc1ccsc1-c1nc(C(N)=O)c2[nH]c(=O)n(-c3ccc(Cl)cc3)c2n1,,"0.112 µM [rising, full curve, poor fit]"
COC(=O)c1cn(CCOc2ccc(C)cc2)c2ccccc12,,"12.6 µM [rising, single point]"
CC(=O)Nc1ccc(Oc2sc(C(=O)c3ccccc3)c(N)c2C#N)cc1,"15.8 µM [falling, partial curve]","35.5 µM [falling, single point]"
CC(Sc1nnc2c(n1)C1CCC2(C)C1(C)C)C(=O)Nc1ccccc1 (centres undefined),,"22.4 µM [rising, single point]"
CCCOC(=O)c1ccc(NC(=O)C2C3CCC(C3)C2C(=O)O)cc1 (centres undefined),"15.8 µM [rising, single point]",
c1cc2[nH]snc2c2nc(C3CC3)nc12,"11.2 µM [rising, partial curve]","11.2 µM [rising, partial curve]"
O=S(=O)(C/C(=C/CO)S(=O)(=O)c1ccccc1)c1ccccc1,,"10 µM [rising, partial curve]"
O=C(Nc1cccc2ccccc12)c1nn(C23CC4CC(CC(C4)C2)C3)cc1[N+](=O)[O-],,"31.6 µM [rising, single point]"
O=C(Nc1cccc(Cl)c1)Nc1ccc(Br)cc1F,"12.6 µM [rising, partial curve]","25.1 µM [rising, partial curve]"
CCCCNS(=O)(=O)c1ccc2nc(SCC(=O)Nc3cccc(F)c3)[nH]c2c1,"6.31 µM [rising, full curve]","11.2 µM [rising, partial curve]"
COc1cccc(-c2ccc3ncnc(NCCNC(C)=O)c3c2)c1,"12.6 µM [falling, partial curve]","11.2 µM [falling, partial curve, poor fit]"
O=C(COC(=O)c1cccnc1Cl)Nc1ccc2c(c1)OCCO2,,"0.112 µM [rising, full curve, poor fit]"
CCCCN(c1ccccc1)S(=O)(=O)N(C)C,"0.708 µM [falling, full curve, poor fit]",
COc1ccc(Cc2nnc(SCC(=O)c3ccc(OC)cc3)o2)cc1,,"25.1 µM [rising, single point]"
CCOC(=O)c1ccc(NC(=S)NCCC2=CCCCC2)cc1,,"1.41 µM [rising, partial curve, poor fit]"
CCOc1cc(N2CCOCC2)c(OCC)cc1NC(=O)CC12CC3CC(CC(C3)C1)C2,"0.01 µM [rising, full curve, poor fit]",

Compound,AC50 [1],AC50 [2]
Cc1ccc(NNC2CC(=O)N(c3cccc(Cl)c3)C2=O)cc1 (centres undefined),,"35.5 µM [rising, single point]"
CCOc1cc(C)c(-c2onc(C(F)(F)F)c2-c2csc(C)n2)c(O)c1,,"25.1 µM [falling, single point]"
S=C(NCc1cccs1)Nc1ccccc1,"10 µM [rising, single point]",
CCC12CN3CC(CC)(CN(C1)C3c1c(O)ccc3ccccc13)C2=O (centres undefined),"35.5 µM [rising, single point]","35.5 µM [rising, single point]"
CCN(CC)CCCNC(=O)c1cc(Sc2nnc(C)s2)nc2ccccc12,,"12.6 µM [rising, single point]"
CCc1ccccc1NC(=S)N(CCCN1CCOCC1)Cc1cccs1,,"11.2 µM [rising, single point]"
O=C(c1cccs1)N(Cc1cccnc1)c1nc2c(Cl)cccc2s1,,"35.5 µM [rising, single point]"
NC(=O)c1ccccc1NC(=O)C1CCCN(c2ncnc3onc(-c4ccc(F)cc4)c23)C1 (centres undefined),"0.0316 µM [falling, full curve, poor fit]",
O=C(Cc1ccc(S(=O)(=O)N2CCCCC2)s1)Nc1ccc(F)c(F)c1,"25.1 µM [rising, single point]",
Cc1ccc(Cn2ccc(NC(=O)c3cc(-c4ccc5c(c4)OCO5)on3)n2)cc1,,"0.794 µM [falling, full curve, poor fit]"
N#Cc1cccc(-c2ccc3ncnc(NCc4cccs4)c3c2)c1,"17.8 µM [falling, partial curve, poor fit]","17.8 µM [falling, partial curve]"
Cc1ccc(NC(=O)CN2C(=O)NC3(CCc4ccccc43)C2=O)cc1 (centres undefined),,"0.01 µM [falling, full curve, poor fit]"
CCC(C)(c1ccc(C(=O)OC)s1)c1ccc(C(=O)OC)s1,"8.91 µM [rising, partial curve]",
COc1ccc(N2CCN(C(=O)CSc3n[nH]c(-c4ccccc4)n3)CC2)cc1,"0.0282 µM [rising, full curve, poor fit]",
Cc1nn(Cc2ccc(Cl)c(Cl)c2)c(C)c1NC(=O)c1cc(C2CC2)on1,,"15.8 µM [rising, single point]"
O=C(Nc1ccccc1O)c1ccccc1O,"7.94 µM [rising, partial curve]","17.8 µM [rising, partial curve]"
Cc1ccc(CCNC(=O)CCN2N=C(c3ccc(C)cc3)CCC2=O)cc1,"35.5 µM [rising, single point]",
O=C(Nc1ccc(N2CCOCC2)nc1)c1cccs1,"8.91 µM [rising, partial curve, poor fit]",
CCOc1cc(CC(=O)N[C@@H](CC(C)C)c2ccccc2N2CCCCC2)ccc1C(=O)O,"0.0141 µM [falling, full curve, poor fit]","0.398 µM [rising, full curve, poor fit]"

# Arranged by molar mass (descending): 3 of the compounds above.
Compound,AC50 [1],AC50 [2]
O=C(c1cccs1)N(Cc1cccnc1)c1nc2c(Cl)cccc2s1,,"35.5 µM [rising, single point]"
COc1cccc(-c2ccc3ncnc(NCCNC(C)=O)c3c2)c1,"12.6 µM [falling, partial curve]","11.2 µM [falling, partial curve, poor fit]"
S=C(NCc1cccs1)Nc1ccccc1,"10 µM [rising, single point]",

# Reference: PubChem BioAssay AID1487 (National Center for Advancing Translational Sciences (NCATS), 2009)
